Source: the supplement of paper PMC10849652
This is one part of the list.

By UniProt entry, the sequences of proteins in these tests, tags left out. Where a name states a change or a piece, a line headed by the entry shows the natural chain unless it says otherwise.
UniProt P48681: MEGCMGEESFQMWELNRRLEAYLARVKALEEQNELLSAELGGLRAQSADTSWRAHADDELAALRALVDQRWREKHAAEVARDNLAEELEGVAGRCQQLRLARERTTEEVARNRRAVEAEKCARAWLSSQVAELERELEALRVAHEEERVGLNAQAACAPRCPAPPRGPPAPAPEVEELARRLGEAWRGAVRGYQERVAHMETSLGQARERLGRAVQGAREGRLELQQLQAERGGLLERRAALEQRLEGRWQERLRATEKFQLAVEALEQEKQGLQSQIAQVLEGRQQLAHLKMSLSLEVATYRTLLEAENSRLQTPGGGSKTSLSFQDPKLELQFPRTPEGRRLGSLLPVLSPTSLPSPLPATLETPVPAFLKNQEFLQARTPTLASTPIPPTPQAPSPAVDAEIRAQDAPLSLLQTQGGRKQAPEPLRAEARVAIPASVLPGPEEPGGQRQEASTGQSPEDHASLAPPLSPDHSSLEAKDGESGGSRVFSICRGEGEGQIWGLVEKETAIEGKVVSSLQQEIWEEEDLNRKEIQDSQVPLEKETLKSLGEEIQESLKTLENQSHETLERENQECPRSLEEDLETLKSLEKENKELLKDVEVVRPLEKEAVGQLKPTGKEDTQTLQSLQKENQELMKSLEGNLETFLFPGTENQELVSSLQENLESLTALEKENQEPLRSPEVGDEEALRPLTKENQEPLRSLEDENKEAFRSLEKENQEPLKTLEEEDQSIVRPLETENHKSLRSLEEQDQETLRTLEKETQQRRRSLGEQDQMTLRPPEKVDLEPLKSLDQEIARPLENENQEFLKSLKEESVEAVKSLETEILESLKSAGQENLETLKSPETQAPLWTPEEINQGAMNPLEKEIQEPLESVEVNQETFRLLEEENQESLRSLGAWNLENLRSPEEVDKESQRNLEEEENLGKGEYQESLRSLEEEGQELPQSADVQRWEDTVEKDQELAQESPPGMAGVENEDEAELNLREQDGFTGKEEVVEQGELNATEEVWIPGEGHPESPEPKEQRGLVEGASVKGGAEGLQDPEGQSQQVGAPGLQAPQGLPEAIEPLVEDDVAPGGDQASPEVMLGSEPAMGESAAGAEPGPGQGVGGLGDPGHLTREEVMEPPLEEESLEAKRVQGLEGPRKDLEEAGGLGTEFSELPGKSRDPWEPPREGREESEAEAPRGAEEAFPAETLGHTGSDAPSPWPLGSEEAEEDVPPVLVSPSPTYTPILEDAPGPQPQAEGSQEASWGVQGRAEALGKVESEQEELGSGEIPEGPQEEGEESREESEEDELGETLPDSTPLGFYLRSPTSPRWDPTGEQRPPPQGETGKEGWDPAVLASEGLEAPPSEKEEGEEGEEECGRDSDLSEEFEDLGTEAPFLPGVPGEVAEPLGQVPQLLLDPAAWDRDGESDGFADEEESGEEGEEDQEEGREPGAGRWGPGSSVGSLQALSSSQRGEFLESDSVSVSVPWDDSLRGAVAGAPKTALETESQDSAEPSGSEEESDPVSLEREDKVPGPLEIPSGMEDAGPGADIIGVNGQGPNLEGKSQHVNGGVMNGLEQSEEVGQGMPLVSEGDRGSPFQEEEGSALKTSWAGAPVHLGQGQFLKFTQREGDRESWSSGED
UniProt Q13469: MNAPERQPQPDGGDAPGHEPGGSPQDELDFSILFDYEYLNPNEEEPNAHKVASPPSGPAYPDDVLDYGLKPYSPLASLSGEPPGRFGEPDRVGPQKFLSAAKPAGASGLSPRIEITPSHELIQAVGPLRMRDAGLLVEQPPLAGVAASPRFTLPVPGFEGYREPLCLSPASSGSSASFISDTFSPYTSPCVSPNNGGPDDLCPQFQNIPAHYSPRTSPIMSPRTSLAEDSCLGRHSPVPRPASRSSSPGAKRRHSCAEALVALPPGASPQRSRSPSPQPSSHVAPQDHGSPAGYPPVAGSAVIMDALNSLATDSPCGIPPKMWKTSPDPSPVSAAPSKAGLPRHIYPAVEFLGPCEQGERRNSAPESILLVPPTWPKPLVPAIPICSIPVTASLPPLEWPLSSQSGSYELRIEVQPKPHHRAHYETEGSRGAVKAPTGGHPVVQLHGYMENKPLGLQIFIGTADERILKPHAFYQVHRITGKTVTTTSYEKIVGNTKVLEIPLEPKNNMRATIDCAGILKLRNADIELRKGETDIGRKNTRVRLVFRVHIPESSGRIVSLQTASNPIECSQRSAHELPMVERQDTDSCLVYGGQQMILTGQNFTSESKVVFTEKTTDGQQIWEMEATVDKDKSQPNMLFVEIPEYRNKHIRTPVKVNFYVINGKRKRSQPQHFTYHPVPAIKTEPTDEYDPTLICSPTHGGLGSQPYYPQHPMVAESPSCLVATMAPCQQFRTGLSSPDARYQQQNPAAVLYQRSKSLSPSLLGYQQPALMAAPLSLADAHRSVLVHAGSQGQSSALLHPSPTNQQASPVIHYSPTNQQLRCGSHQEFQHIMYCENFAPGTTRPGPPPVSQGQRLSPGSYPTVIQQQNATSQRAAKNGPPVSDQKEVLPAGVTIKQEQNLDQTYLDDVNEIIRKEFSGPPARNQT
UniProt P46087: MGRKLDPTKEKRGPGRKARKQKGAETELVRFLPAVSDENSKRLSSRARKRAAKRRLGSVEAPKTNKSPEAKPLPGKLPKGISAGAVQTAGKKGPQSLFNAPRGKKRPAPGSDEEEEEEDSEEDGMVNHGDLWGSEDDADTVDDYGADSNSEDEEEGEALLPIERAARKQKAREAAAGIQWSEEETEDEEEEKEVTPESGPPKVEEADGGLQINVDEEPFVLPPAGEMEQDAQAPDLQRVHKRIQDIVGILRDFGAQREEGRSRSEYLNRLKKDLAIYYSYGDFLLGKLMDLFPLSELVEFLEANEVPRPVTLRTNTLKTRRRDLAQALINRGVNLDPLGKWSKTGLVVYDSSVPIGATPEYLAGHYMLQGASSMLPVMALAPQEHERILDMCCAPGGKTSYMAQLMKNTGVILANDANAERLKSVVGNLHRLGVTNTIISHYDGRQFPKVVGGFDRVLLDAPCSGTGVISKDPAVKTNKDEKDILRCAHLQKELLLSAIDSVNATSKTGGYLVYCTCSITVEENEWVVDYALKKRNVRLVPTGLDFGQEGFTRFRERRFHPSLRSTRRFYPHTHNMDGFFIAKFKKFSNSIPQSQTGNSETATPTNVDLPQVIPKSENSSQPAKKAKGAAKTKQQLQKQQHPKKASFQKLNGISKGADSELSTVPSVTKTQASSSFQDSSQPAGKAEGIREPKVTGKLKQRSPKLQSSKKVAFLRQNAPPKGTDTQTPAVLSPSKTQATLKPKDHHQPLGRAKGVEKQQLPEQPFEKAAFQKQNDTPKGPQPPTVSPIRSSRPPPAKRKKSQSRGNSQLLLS
UniProt Q86UT6, whole entry, looked up: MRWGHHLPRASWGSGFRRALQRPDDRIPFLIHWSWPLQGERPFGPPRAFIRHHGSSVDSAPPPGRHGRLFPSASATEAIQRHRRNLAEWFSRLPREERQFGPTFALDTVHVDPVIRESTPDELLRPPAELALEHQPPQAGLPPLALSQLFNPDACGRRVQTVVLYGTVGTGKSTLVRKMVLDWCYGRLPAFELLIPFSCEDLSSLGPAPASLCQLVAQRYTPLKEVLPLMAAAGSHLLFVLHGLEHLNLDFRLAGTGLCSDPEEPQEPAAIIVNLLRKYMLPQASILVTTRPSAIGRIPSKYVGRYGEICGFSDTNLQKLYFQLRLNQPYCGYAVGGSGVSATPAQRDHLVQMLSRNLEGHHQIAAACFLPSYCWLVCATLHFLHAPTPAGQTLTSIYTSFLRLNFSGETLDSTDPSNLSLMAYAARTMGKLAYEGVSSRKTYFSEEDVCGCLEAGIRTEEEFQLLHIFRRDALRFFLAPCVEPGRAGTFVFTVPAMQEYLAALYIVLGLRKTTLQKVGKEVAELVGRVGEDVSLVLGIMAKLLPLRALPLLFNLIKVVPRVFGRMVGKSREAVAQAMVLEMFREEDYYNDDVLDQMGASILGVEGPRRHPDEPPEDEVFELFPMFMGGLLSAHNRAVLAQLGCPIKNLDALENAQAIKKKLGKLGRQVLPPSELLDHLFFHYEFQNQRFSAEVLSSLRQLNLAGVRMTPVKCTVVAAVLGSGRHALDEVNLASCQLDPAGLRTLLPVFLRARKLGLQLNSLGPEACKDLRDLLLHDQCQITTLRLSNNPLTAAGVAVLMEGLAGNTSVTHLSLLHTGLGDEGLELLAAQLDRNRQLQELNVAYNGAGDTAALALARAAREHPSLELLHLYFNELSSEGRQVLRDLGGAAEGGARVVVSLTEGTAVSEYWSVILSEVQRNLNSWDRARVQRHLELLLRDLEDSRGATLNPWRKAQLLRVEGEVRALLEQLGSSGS
UniProt O94916: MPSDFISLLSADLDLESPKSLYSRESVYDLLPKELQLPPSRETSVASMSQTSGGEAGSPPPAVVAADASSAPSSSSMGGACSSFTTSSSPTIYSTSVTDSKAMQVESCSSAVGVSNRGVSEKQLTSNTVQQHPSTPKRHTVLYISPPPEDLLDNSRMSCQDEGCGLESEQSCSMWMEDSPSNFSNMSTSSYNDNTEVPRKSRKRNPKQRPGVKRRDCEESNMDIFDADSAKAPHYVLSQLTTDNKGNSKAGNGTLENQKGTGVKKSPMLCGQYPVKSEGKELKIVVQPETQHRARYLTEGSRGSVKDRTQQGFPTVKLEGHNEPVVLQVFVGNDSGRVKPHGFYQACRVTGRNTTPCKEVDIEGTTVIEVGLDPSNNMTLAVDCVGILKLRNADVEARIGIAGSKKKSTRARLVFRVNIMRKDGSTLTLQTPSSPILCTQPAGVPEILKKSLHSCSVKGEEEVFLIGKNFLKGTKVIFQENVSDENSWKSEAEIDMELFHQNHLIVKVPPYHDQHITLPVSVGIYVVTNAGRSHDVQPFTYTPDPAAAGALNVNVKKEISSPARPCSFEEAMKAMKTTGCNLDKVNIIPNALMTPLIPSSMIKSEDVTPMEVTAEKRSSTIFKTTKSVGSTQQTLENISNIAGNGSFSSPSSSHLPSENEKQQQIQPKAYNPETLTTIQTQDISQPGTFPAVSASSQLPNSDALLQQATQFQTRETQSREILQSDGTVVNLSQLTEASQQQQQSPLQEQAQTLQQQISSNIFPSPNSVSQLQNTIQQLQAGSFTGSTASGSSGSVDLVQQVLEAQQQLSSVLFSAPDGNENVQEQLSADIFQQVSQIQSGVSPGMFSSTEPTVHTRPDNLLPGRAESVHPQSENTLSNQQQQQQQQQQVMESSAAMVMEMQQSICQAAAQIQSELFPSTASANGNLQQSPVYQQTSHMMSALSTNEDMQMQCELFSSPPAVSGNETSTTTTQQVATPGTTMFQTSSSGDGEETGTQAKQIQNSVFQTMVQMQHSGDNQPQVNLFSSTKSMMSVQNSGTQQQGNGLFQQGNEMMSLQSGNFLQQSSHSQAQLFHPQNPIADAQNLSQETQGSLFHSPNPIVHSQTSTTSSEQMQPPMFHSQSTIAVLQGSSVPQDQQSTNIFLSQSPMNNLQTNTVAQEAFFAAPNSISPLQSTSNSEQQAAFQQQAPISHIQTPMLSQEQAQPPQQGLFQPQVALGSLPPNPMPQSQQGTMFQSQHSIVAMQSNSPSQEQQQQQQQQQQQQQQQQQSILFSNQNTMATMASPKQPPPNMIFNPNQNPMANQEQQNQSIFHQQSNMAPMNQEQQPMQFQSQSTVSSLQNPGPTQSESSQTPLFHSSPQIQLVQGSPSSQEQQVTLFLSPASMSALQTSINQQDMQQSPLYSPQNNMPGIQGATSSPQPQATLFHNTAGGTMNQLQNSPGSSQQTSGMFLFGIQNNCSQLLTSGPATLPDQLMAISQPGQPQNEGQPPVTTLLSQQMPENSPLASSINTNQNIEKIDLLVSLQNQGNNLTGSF
UniProt O60361, whole entry, looked up: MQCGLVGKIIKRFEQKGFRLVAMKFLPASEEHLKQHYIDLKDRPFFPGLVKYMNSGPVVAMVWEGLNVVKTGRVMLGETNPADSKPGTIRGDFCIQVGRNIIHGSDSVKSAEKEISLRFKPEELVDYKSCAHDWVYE
UniProt Q8WX92, whole entry, looked up: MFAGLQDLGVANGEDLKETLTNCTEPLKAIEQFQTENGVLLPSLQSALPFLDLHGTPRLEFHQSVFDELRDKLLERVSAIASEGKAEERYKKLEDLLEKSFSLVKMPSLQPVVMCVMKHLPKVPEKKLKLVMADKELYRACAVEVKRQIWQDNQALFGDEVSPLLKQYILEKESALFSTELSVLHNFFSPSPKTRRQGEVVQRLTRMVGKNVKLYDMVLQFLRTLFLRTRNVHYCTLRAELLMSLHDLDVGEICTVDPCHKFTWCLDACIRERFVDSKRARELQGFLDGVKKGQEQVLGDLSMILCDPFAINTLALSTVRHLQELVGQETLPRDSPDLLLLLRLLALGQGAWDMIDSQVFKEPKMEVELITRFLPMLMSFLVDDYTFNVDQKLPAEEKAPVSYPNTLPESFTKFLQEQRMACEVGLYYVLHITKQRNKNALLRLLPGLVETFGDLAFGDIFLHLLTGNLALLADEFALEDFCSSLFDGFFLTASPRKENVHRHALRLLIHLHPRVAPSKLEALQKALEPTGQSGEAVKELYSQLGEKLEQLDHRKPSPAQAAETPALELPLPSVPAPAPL

Columns and labels:
Assay in all cases: log2 fold change, soluble protein after heating vs DMSO (PISA); higher = thermal stabilisation; K562 cells, 10 uM, 30 min; active = over 0.2 and 3.5 SD of the protein, either way, in both replicates (recomputed)
[1] = compound: CC1=C(C=C(C=C1)NC(=O)C2=CC(=CC=C2)C(C)(C)C#N)NC3=CC4=C(C=C3)N=CN(C4=O)C
In short: (§1)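 K562 cells at 2×10^6 cells/mL were given 10 μM compound for 30 min. Aliquots then went through 3 min of heating across 48°C-58°C, were pooled, and were extracted in PBS with 0.5% NP-40 at 4°C, and the supernatant after 21,000xg for 90 min was quantified by TMTpro 16plex LC-MS/MS with channel sums equalised. Thermal stability relative to control samples, from duplicates, is given as log2 fold change.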

[2] = compound: CC1=C(C=C(C=C1)NC(=O)C2=CC(=CC=C2)N(C)C)NC(=O)C3=CC=C(C=C3)O
In short: as §1

[3] = compound: CC1=CC=C(C=C1)SC2=C3C=C(SC3=CN=C2)C(=O)N
In short: as §1

[4] = compound: CC1=NC(=CC=C1)C2=C(N=C(N2)C(C)(C)C)C3=CC4=NC=CN=C4C=C3
In short: as §1

Nexturastat A = compound: CCCCN(Cc1ccc(C(=O)NO)cc1)C(=O)Nc1ccccc1 [Nexturastat A]
In short: as §1

vemurafenib = compound: CCCS(=O)(=O)Nc1ccc(F)c(C(=O)c2c[nH]c3ncc(-c4ccc(Cl)cc4)cc23)c1F [vemurafenib]
In short: as §1

[5] = compound: CCCS(=O)(=O)Nc1ccc(F)c(C(=O)c2c[nH]c3ncc(Cl)cc23)c1F
In short: as §1

[6] = compound: CCCc1cc(C)[nH]c(=O)c1CNC(=O)c1cc(-c2ccnc(N3CCN(C)CC3)c2)cc2c1cnn2C(C)C
In short: as §1

givinostat = compound: CCN(CC)Cc1ccc2cc(COC(=O)Nc3ccc(C(=O)NO)cc3)ccc2c1 [givinostat]
In short: as §1

barasertib = compound: CCN(CCCOc1ccc2c(Nc3cc(CC(=O)Nc4cccc(F)c4)[nH]n3)ncnc2c1)CCOP(=O)(O)O [barasertib]
In short: as §1

[7] = compound: CC[C@@H]1C(=O)N(C)c2cnc(Nc3ccc(C(=O)NC4CCN(C)CC4)cc3OC)nc2N1C1CCCC1
In short: as §1

volasertib = compound: CC[C@@H]1C(=O)N(C)c2cnc(Nc3ccc(C(=O)N[C@H]4CC[C@H](N5CCN(CC6CC6)CC5)CC4)cc3OC)nc2N1C(C)C [volasertib]
In short: as §1

[8] = compound: CC[C@H](C)N1C=C(C2=C(C=C(C=C21)C3=CN=C(C=C3)N4CCNCC4)C(=O)NCC5=C(C=C(NC5=O)C)C)C
In short: as §1

epoxomicin = compound: CC[C@H](C)[C@@H](C(=O)N[C@@H]([C@@H](C)O)C(=O)N[C@@H](CC(C)C)C(=O)[C@]1(CO1)C)NC(=O)[C@H]([C@@H](C)CC)N(C)C(=O)C [epoxomicin]
In short: as §1

[9] = compound: CCn1cc(-c2ccnc3[nH]c(-c4cccc(CN(C)C)c4)cc23)c(-c2ccc(NC(=O)N(C)C)cc2)n1
In short: as §1

[10] = compound: CN(C)CC(=O)Nc1ccc2[nH]c(=O)c3ccccc3c2c1
In short: as §1

[11] = compound: CN1C2=C(C3=C1C(=O)N(N=C3)CC4=CC(=CC=C4)N)SC(=C2)S(=O)C
In short: as §1

[12] = compound: CN1CCC(CNc2ccc3ncc(-c4cccc(OC(F)(F)F)c4)n3n2)CC1
In short: as §1

rosiglitazone = compound: CN(CCOC1=CC=C(C=C1)C[C@H]2C(=O)NC(=O)S2)C3=CC=CC=N3 (racemic) [rosiglitazone]
In short: as §1

[13] = compound: CCn1c(C(=O)N(C2CC2)C2CC2)cc2c3c(ncn3C)c(Nc3cc(C)n(C)n3)nc21
In short: as §1

| Target | log2 fold change [1] | log2 fold change [2] | log2 fold change [3] | log2 fold change [4] | log2 fold change (Nexturastat A) | log2 fold change (vemurafenib) | log2 fold change [5] | log2 fold change [6] | log2 fold change (givinostat) | log2 fold change (barasertib) | log2 fold change [7] | log2 fold change (volasertib) | log2 fold change [8] | log2 fold change (epoxomicin) | log2 fold change [9] | log2 fold change [10] | log2 fold change [11] | log2 fold change [12] | log2 fold change (rosiglitazone) | log2 fold change [13] |
| --- | --- | --- | --- | --- | --- | --- | --- | --- | --- | --- | --- | --- | --- | --- | --- | --- | --- | --- | --- | --- |
| NFYC (UniProt Q13952) | inactive: 0.005 | inactive: 0.011 | inactive: -0.061 | inactive: 0.019 | inactive: -0.087 | inactive: -0.006 | inactive: -0.001 | inactive: -0.031 | inactive: 0.001 | inactive: 0.028 | inactive: 0.012 | inactive: 0.015 | inactive: -0.021 | inactive: -0.001 | inactive: -0.015 | inactive: 0.041 | inactive: -0.063 | inactive: 0 |  |  |
| NOL6 (UniProt Q9H6R4) | inactive: -0.14 | inactive: -0.131 | inactive: -0.13 | inactive: -0.013 | inactive: 0.149 | inactive: -0.31 | inactive: 0 | inactive: -0.07 |  | inactive: 0.089 |  | inactive: -0.019 |  | inactive: -0.102 | inactive: 0.049 | inactive: -0.278 | inactive: 0.227 | inactive: 0.165 | inactive: -0.071 |  |
| NGRN (UniProt Q9NPE2) | inactive: -0.004 |  | inactive: 0.047 |  | inactive: 0.143 | inactive: -0.025 | inactive: -0.012 | inactive: 0.006 | inactive: -0.003 | inactive: 0.016 | inactive: 0.109 | inactive: 0.016 | inactive: 0.027 | inactive: -0.075 | inactive: -0.044 | inactive: -0.09 | inactive: 0.066 | inactive: -0.009 | inactive: 0.009 | inactive: 0.018 |
| NES (UniProt P48681) | inactive: -0.126 | inactive: -0.03 | inactive: 0.079 | inactive: 0.02 | inactive: 0.125 | inactive: -0.013 | inactive: -0.007 | inactive: 0.032 | inactive: 0.021 | inactive: 0.262 | inactive: 0.091 | inactive: 0.047 |  | inactive: -0.117 | inactive: 0.428 | inactive: -0.143 | inactive: 0.31 | inactive: 0.045 | inactive: -0.074 | inactive: -0.092 |
| NOP53 (UniProt Q9NZM5) | inactive: -0.052 | inactive: 0.005 | inactive: -0.073 | inactive: -0.163 | inactive: 0.264 | inactive: -0.154 | inactive: -0.147 | inactive: 0.204 | inactive: 0.048 | inactive: -0.105 | inactive: 0.174 | inactive: 0.393 | inactive: -0.014 | inactive: -0.009 | inactive: 0.013 | inactive: -0.111 | inactive: 0.516 | inactive: 0.599 |  |  |
| NOC2L (UniProt Q9Y3T9) | inactive: -0.036 |  | inactive: -0.193 | inactive: 0.017 | inactive: 0.096 | inactive: -0.004 | inactive: 0 | inactive: -0.02 | inactive: 0.049 | inactive: 0.094 | inactive: 0.028 | inactive: -0.309 | inactive: 0.11 | inactive: 0.151 | inactive: 0.082 | inactive: 0.06 | inactive: 0.032 | inactive: 0.04 | inactive: 0.006 | inactive: -0.084 |
| NFATC2 (UniProt Q13469) | inactive: -0.046 | inactive: -0.079 | inactive: -0.031 | inactive: 0.018 | inactive: 0.12 | inactive: 0.038 | inactive: 0.041 | inactive: 0.086 | inactive: 0.192 | inactive: 0.107 | inactive: -0.098 | inactive: -0.281 | inactive: 0.19 | inactive: -0.001 | inactive: -0.197 | inactive: 0.065 | inactive: 0.039 | inactive: -0.102 |  |  |
| NRDC isoform 2 (UniProt O43847) | inactive: 0.001 | inactive: -0.053 | inactive: 0.01 | inactive: 0.03 | inactive: 0 | inactive: 0.047 | inactive: 0.051 | inactive: 0.021 | inactive: 0.017 | inactive: 0.037 | inactive: -0.18 | active: -0.371 | inactive: 0.069 | inactive: 0.038 | inactive: -0.087 | inactive: 0.055 | inactive: 0 | inactive: -0.087 |  |  |
| NNMT (UniProt P40261) | inactive: 0.038 |  | inactive: 0.012 | inactive: 0.039 | inactive: -0.082 | inactive: 0.011 | inactive: -0.001 | inactive: -0.093 | inactive: -0.076 | inactive: -0.04 | inactive: 0.003 | inactive: -0.197 | inactive: 0.023 | inactive: 0.039 | inactive: -0.068 | inactive: -0.042 | inactive: -0.025 | inactive: -0.152 |  |  |
| NIPSNAP3B (UniProt Q9BS92) | inactive: -0.133 |  | inactive: 0.049 | inactive: 0.023 |  | inactive: 0.065 | inactive: 0.016 | inactive: -0.001 | inactive: -0.088 | inactive: 0.016 | inactive: -0.238 | inactive: -0.028 | inactive: 0.039 |  | inactive: -0.019 | inactive: -0.088 | inactive: -0.176 | inactive: 0.073 |  |  |
| NMT1 (UniProt P30419) | inactive: -0.012 | inactive: -0.006 | inactive: -0.012 | inactive: 0.021 | inactive: -0.036 | inactive: -0.013 | inactive: 0 | inactive: 0.023 | active: -0.284 | inactive: -0.015 | inactive: 0.028 | inactive: -0.21 | inactive: 0.036 | inactive: 0.014 | inactive: -0.028 | inactive: -0.022 | inactive: 0.007 | inactive: -0.097 |  |  |
| NOD1 (UniProt Q9Y239) | inactive: -0.15 | inactive: -0.048 | inactive: -0.198 | inactive: -0.076 | inactive: -0.026 |  | inactive: -0.341 |  |  | inactive: -0.018 | inactive: 0.174 | inactive: 0.297 |  | inactive: 0.061 | inactive: -0.065 |  | inactive: 0.229 | inactive: 0.028 | inactive: 0.026 |  |
| NOP2 isoform 4 (UniProt P46087) | inactive: -0.031 | inactive: -0.062 | inactive: -0.105 | inactive: -0.264 | inactive: 0.2 | inactive: -0.433 | inactive: -0.051 | inactive: 0.172 | inactive: 0.178 | inactive: -0.223 | inactive: 0.196 | inactive: 0.348 | inactive: -0.03 | inactive: -0.328 | inactive: 0.364 | inactive: -0.346 | inactive: 0.546 | inactive: 0.494 |  |  |
| NLRX1 (UniProt Q86UT6) | inactive: 0.111 |  | inactive: -0.045 | inactive: -0.335 | inactive: -0.052 |  | inactive: 0.087 |  | inactive: 0.018 |  |  | inactive: -0.289 | inactive: -0.185 | inactive: -0.019 |  |  |  |  |  | inactive: -0.201 |
| NFAT5 isoform 5 (UniProt O94916) | inactive: -0.025 |  | inactive: -0.126 | inactive: 0 | inactive: 0.054 | inactive: -0.183 | inactive: 0.171 | inactive: -0.13 | inactive: 0 | inactive: -0.056 | inactive: 0.027 | inactive: 0.153 | inactive: 0 | inactive: 0.018 | inactive: -0.057 | inactive: 0.068 | inactive: 0.122 | inactive: 0.087 | inactive: 0.201 | inactive: -0.006 |
| NME2P1 (UniProt O60361) | inactive: 0.06 | inactive: 0.017 | inactive: 0.065 | inactive: 0.004 | inactive: -0.164 | inactive: 0.038 | inactive: -0.043 | inactive: -0.102 | inactive: 0.09 | inactive: 0.12 | inactive: 0.117 | inactive: 0.03 | inactive: -0.177 | inactive: 0.033 | inactive: 0.198 | inactive: -0.021 |  | inactive: -0.074 |  |  |
| NEURL4 (UniProt Q96JN8) | inactive: -0.019 | inactive: 0.492 |  |  |  | inactive: 0.001 |  |  | inactive: 0.064 | inactive: -0.178 | inactive: 0.069 |  |  |  |  | inactive: -0.154 | inactive: 0.092 |  | inactive: -0.03 | inactive: -0.021 |
| NELFB isoform 2 (UniProt Q8WX92) | inactive: -0.026 | inactive: -0.062 | inactive: 0.035 | inactive: 0.05 | inactive: -0.032 | inactive: 0.06 | inactive: 0.08 | inactive: -0.007 | inactive: 0.069 | inactive: 0.046 | inactive: -0.176 | active: -0.68 | inactive: 0.118 | inactive: 0.072 | inactive: -0.012 | inactive: 0.068 | inactive: -0.02 | inactive: -0.116 |  |  |
| NFE2 (UniProt Q16621) | inactive: -0.09 | inactive: 0.064 | inactive: 0.017 | inactive: 0.034 | inactive: 0.044 | inactive: -0.087 | inactive: 0.043 | inactive: -0.009 | inactive: 0.087 | inactive: -0.003 | inactive: -0.136 | inactive: -0.227 | inactive: 0.018 | inactive: 0.173 | inactive: 0.084 | inactive: 0.273 | inactive: -0.015 | inactive: -0.145 |  |  |
